PubChem BioAssay AID1159579 | Peter MacCallum Cancer Centre, 2015

Screen: 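Follow-up screen seeking modulators of motility in lymphatic endothelial cells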 (follow-up of hits)
Cells: human dermal lymphatic endothelial cells
Reagent: single siRNA against human genes, 25 nM
Read-out: 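Scratch wound imaging measuring area filled by moving cells plus nuclei number, averaged over two wells and scaled to mock-transfected controls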
Reading the numbers: migration relative to mock: higher = more migration into the scratch; mean nuclei count: higher = more cells remaining
Hit rule: 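Called active when the migration ratio is 0.6 or lower (impaired) or 1.3 or higher (accelerated), but inactive whenever the mean nuclei count falls under 3300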
Meaning of the calls: active = migration changed (impaired or accelerated); inactive = no migration change, or too few cells
The whole screen tested about 2,000 reagents; below is a part drawn at random. 549 of all reagents (27%) were called active. 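Some migration ratios are negative; siRNAs with too few cells are inactive whatever their migration ratio.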 The numbers tell different reagents against one gene apart. Not given: the time to read-out.

The first 3 records, to show the layout:
Gene	reagent	migration relative to mock	migration and cell number class	mean nuclei count	activity call
LAX1 (lymphocyte transmembrane adaptor 1)	1	0.42	migration reduced	5006	active
LAX1 (lymphocyte transmembrane adaptor 1)	2	1.05	no change in migration or cell number	5920	inactive
LAX1 (lymphocyte transmembrane adaptor 1)	3	0.29	too few cells; migration not scored	3218	inactive

The list itself, from the first entry:
Gene	reagent	migration relative to mock	migration and cell number class	mean nuclei count	activity call
LAX1 (lymphocyte transmembrane adaptor 1)	1	0.42	migration reduced	5006	active
LAX1 (lymphocyte transmembrane adaptor 1)	2	1.05	no change in migration or cell number	5920	inactive
LAX1 (lymphocyte transmembrane adaptor 1)	3	0.29	too few cells; migration not scored	3218	inactive
LAX1 (lymphocyte transmembrane adaptor 1)	4	0.82	no change in migration or cell number	5230	inactive
KRTAP12-2 (keratin associated protein 12-2)	1	0.76	no change in migration or cell number	6191	inactive
KRTAP12-2 (keratin associated protein 12-2)	2	1	no change in migration or cell number	5516	inactive
KRTAP12-2 (keratin associated protein 12-2)	3	0.58	migration reduced	3539	active
KRTAP12-2 (keratin associated protein 12-2)	4	0.9	no change in migration or cell number	5436	inactive
ITFG2 (integrin alpha FG-GAP repeat containing 2)	1	0.95	no change in migration or cell number	5314	inactive
ITFG2 (integrin alpha FG-GAP repeat containing 2)	2	0.44	migration reduced	4941	active
ITFG2 (integrin alpha FG-GAP repeat containing 2)	3	0.17	migration reduced	3618	active
ITFG2 (integrin alpha FG-GAP repeat containing 2)	4	0.6	migration reduced	4494	active
CD200R1L (CD200 receptor 1 like)	1	0.67	no change in migration or cell number	6222	inactive
CD200R1L (CD200 receptor 1 like)	2	0.81	no change in migration or cell number	5620	inactive
CD200R1L (CD200 receptor 1 like)	3	0.98	no change in migration or cell number	6197	inactive
CD200R1L (CD200 receptor 1 like)	4	1.15	no change in migration or cell number	5706	inactive
GBA1 (glucosylceramidase beta 1)	1	0.84	no change in migration or cell number	5086	inactive
GBA1 (glucosylceramidase beta 1)	2	0.13	migration reduced	5480	active
GBA1 (glucosylceramidase beta 1)	3	0.46	migration reduced	5470	active
GBA1 (glucosylceramidase beta 1)	4	0.82	no change in migration or cell number	7292	inactive
LAMB3 (laminin subunit beta 3)	1	1	no change in migration or cell number	5014	inactive
LAMB3 (laminin subunit beta 3)	2	0.67	no change in migration or cell number	4842	inactive
LAMB3 (laminin subunit beta 3)	3	1.04	no change in migration or cell number	5554	inactive
LAMB3 (laminin subunit beta 3)	4	0.59	migration reduced	5614	active
TP53I11 (tumor protein p53 inducible protein 11)	1	1.02	no change in migration or cell number	5248	inactive
TP53I11 (tumor protein p53 inducible protein 11)	2	0.64	no change in migration or cell number	5450	inactive
TP53I11 (tumor protein p53 inducible protein 11)	3	0.56	migration reduced	4926	active
TP53I11 (tumor protein p53 inducible protein 11)	4	1.45	migration increased	5330	active
OR10H4 (olfactory receptor family 10 subfamily H member 4)	1	0.82	no change in migration or cell number	5111	inactive
OR10H4 (olfactory receptor family 10 subfamily H member 4)	2	0.84	no change in migration or cell number	6112	inactive
OR10H4 (olfactory receptor family 10 subfamily H member 4)	3	0.31	migration reduced	5022	active
OR10H4 (olfactory receptor family 10 subfamily H member 4)	4	0.5	migration reduced	5996	active
GPI (glucose-6-phosphate isomerase)	1	0.7	no change in migration or cell number	6562	inactive
GPI (glucose-6-phosphate isomerase)	2	-0.75	migration reduced	4026	active
GPI (glucose-6-phosphate isomerase)	3	0.64	no change in migration or cell number	6768	inactive
GPI (glucose-6-phosphate isomerase)	4	0.73	no change in migration or cell number	6627	inactive
SELPLG (selectin P ligand)	1	1.09	no change in migration or cell number	5894	inactive
SELPLG (selectin P ligand)	2	0.47	migration reduced	5192	active
SELPLG (selectin P ligand)	3	0.71	no change in migration or cell number	4972	inactive
SELPLG (selectin P ligand)	4	0.3	migration reduced	4112	active
CSK (C-terminal Src kinase)	1	0.78	no change in migration or cell number	6154	inactive
CSK (C-terminal Src kinase)	2	1.1	no change in migration or cell number	5184	inactive
CSK (C-terminal Src kinase)	3	0.92	no change in migration or cell number	6300	inactive
CSK (C-terminal Src kinase)	4	0.14	migration reduced	5114	active
RBMY1A1 (RNA binding motif protein Y-linked family 1 member A1)	1	0.94	no change in migration or cell number	5968	inactive
RBMY1A1 (RNA binding motif protein Y-linked family 1 member A1)	2	0.76	no change in migration or cell number	5471	inactive
RBMY1A1 (RNA binding motif protein Y-linked family 1 member A1)	3	1.19	no change in migration or cell number	5124	inactive
RBMY1A1 (RNA binding motif protein Y-linked family 1 member A1)	4	0.9	no change in migration or cell number	5218	inactive
CRYM (crystallin mu)	1	0.7	no change in migration or cell number	4458	inactive
CRYM (crystallin mu)	2	0.71	no change in migration or cell number	4192	inactive
CRYM (crystallin mu)	3	0.56	migration reduced	5318	active
CRYM (crystallin mu)	4	0.69	no change in migration or cell number	5064	inactive
SUSD4 (sushi domain containing 4)	1	0.73	no change in migration or cell number	5920	inactive
SUSD4 (sushi domain containing 4)	2	0.87	no change in migration or cell number	5635	inactive
SUSD4 (sushi domain containing 4)	3	1.33	migration increased	5380	active
SUSD4 (sushi domain containing 4)	4	0.82	no change in migration or cell number	3866	inactive
SLC9B2	1	0.8	no change in migration or cell number	3386	inactive
SLC9B2	2	0.75	no change in migration or cell number	5111	inactive
SLC9B2	3	0.92	no change in migration or cell number	5188	inactive
SLC9B2	4	1.02	no change in migration or cell number	5042	inactive
RTL8C (retrotransposon Gag like 8C)	1	0.56	migration reduced	5426	active
RTL8C (retrotransposon Gag like 8C)	2	0.77	no change in migration or cell number	5617	inactive
RTL8C (retrotransposon Gag like 8C)	3	0.94	no change in migration or cell number	5306	inactive
RTL8C (retrotransposon Gag like 8C)	4	0.6	migration reduced	5130	active
TCAIM (T cell activation inhibitor, mitochondrial)	1	0.54	migration reduced	3972	active
TCAIM (T cell activation inhibitor, mitochondrial)	2	0.94	no change in migration or cell number	5576	inactive
TCAIM (T cell activation inhibitor, mitochondrial)	3	1.13	no change in migration or cell number	5702	inactive
TCAIM (T cell activation inhibitor, mitochondrial)	4	0.98	no change in migration or cell number	4688	inactive
